Drawing on US20060183687A1, this text covers binding for two substances.

Chains of the proteins cited; added tags and fusions are not shown. Lines headed by an entry give the natural chain unless they say otherwise; changes in a name come on top. A line that says so, or that is headed by a name, gives the form on record, which may keep a tag or linker.
UniProt Q07817: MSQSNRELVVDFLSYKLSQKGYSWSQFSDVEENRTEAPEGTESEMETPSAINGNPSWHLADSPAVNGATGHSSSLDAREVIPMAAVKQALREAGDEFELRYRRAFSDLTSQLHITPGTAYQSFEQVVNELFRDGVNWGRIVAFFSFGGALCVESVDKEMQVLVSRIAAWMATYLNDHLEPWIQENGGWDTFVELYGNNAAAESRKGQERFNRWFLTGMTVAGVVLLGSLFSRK
FLAG-tagged Bcl-xL (Q07817, form named): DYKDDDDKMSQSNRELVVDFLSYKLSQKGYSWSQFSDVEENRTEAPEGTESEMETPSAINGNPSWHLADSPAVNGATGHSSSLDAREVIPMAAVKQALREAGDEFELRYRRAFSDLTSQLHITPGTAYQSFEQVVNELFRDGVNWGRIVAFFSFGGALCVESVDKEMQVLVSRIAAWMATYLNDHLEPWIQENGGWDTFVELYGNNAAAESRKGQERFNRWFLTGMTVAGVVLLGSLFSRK
UniProt P63167: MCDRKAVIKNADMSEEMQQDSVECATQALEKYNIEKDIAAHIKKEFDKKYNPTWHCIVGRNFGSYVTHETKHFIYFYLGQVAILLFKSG
UniProt O54918: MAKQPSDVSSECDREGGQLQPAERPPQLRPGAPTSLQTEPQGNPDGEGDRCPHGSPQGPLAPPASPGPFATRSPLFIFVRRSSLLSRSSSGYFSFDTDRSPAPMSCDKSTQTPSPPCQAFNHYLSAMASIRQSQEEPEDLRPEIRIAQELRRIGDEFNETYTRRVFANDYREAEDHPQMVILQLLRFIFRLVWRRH

No constants are given. Whether binding was seen depends on the method and setting. Some binding calls cover weakened binding; strength is not graded here.

One assay addresses FLAG-tagged Bcl-xL (UniProt Q07817). Briefly: immunoprecipitation and immunoblot from co-transfected 293T cells (FIG. 7). On the technique in general: Immunoblotting shows a protein as a band on a membrane.
A further assay concerns the target Bcl-xL (wild-type) (UniProt Q07817). Description: immunoprecipitation with anti-EE from 35S-labelled co-transfected 293T cells (FIG. 7A).
In the next assay the target is dynein light chain (UniProt P63167). Briefly: reverse yeast two-hybrid system.

For “EE-tagged BimL (Glu-Glu epitope-tagged mouse BimL) (from UniProt O54918 1-196)”, the binding entry with FLAG-tagged Bcl-xL and in the assay with Bcl-xL (wild-type) was “binds” throughout. Turning to “murine BimL (wild-type) (from UniProt O54918 1-196)”, the binding entry with dynein light chain was “binds”.
